PubChem BioAssay AID504764 | Drosophila RNAi Screening Center – 2011

- Purpose: 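Knock-downs that raise or lower a Notch target reporter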 (primary screen)
- Cell system: Drosophila Kc167 cells
- Reagent: long dsRNA against Drosophila genes
- Timing: about 5 days (4 days dsRNA, then 24 h after transfection)
- Conditions: transfection of constitutively active membrane-tethered Notch lacking the extracellular domain, read 24 h later
- Read-out: 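Light from a Notch-responsive E(spl)m3 luciferase reporter under active Notch, with control-promoter and no-Notch reporter wells to normalise; raw counts from paired wells a and b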
- Direction: induced reporter light, run 1, well a and induced reporter light, run 1, well b: higher = more light from the Notch target reporter with active Notch; control promoter light, run 1, well a and control promoter light, run 1, well b: higher = more light from the viral control promoter (cell number, transfection, viability); uninduced reporter light, run 1, well a: higher = more light from the Notch target reporter without active Notch
- Rule for the call: 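Wells with low control signal or poorly matching duplicates excluded; duplicates averaged; per source plate, z beyond ±2 for induced/control log2 ratio or beyond ±1.8 for induced/uninduced marks a hit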
- Calls: active = modifier hit (raised or lowered Notch signal); inactive = not a hit
The deposit covers about 22,000 reagents; below is a random part of those with a known target gene and a result. In the full data, 403 (1.9%) were called active. 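Unnormalised raw counts per well; ratio z-scores behind the hit calls and whether each hit raises or lowers signal are not deposited.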 Unmarked entries are inactive. Names joined by + are all predicted targets of the reagent. Not given: the amount of reagent.

gene knocked down | DRSC id | induced reporter light, run 1, well a | induced reporter light, run 1, well b | control promoter light, run 1, well a | control promoter light, run 1, well b | uninduced reporter light, run 1, well a
elav | DRSC18772 | 1.80e5 | 1.83e5 | 2.12e5 | 2.04e5 | 15080
GstO3 | DRSC10710 | 1.54e5 | 1.52e5 | 1.21e5 | 1.42e5 | 7325
CG33257 | DRSC09917 | 1.87e5 | 1.56e5 | 1.93e5 | 2.08e5 | 8200
CG2852 | DRSC04321 | 1.60e5 | 1.33e5 | 1.56e5 | 1.40e5 | 11945
Gp93 | DRSC15827 | 1.65e5 | 2.26e5 | 2.08e5 | 2.19e5 | 13240
CG32606 (retired record) | DRSC19001 | 5105 | 3732 | 5450 | 8875 | 2800
CG32606 (retired record) | DRSC19371 | 98890 | 52780 | 79265 | 69080 | 11238
CG32606 (retired record) | DRSC19372 | 79300 | 52530 | 69985 | 64865 | 12525
CG32606 (retired record) | DRSC19373 | 81650 | 58470 | 74250 | 89410 | 10895
CG4496 | DRSC02753 | 1.61e5 | 1.35e5 | 1.52e5 | 1.35e5 | 9355
roh | DRSC04003 | 37195 | 41665 | 64275 | 63665 | 2028
CG13838 | DRSC14688 | 1.97e5 | 1.70e5 | 1.93e5 | 1.93e5 | 13410
Gyc89Db | DRSC15009 | 2.33e5 | 2.50e5 | 3.17e5 | 3.72e5 | 19410
Inx7 + cm | DRSC18753 | 2.45e5 | 2.06e5 | 2.76e5 | 2.45e5 | 18065
CG8299 | DRSC07139 | 62220 | 79365 | 1.18e5 | 94610 | 6532
CG17147 | DRSC10249 | 52005 | 53895 | 50520 | 53480 | 2805
RhoGAP102A | DRSC17110 | 60715 | 86615 | 86245 | 93770 | 6990
RhoGAP102A | DRSC17145 | 1.06e5 | 99390 | 1.90e5 | 3.47e5 | 9740
Pef | DRSC06695 | 85730 | 70160 | 71540 | 67135 | 6588
CG15322 | DRSC20680 | 7450 | 7965 | 7095 | 6030 | 3675

Copied from the listing (2 entries):
gene knocked down | DRSC id | induced reporter light, run 1, well a | induced reporter light, run 1, well b | control promoter light, run 1, well a | control promoter light, run 1, well b | uninduced reporter light, run 1, well a
CG32606 (retired record) | DRSC19371 | 98890 | 52780 | 79265 | 69080 | 11238
CG32606 (retired record) | DRSC19372 | 79300 | 52530 | 69985 | 64865 | 12525
